No constants are given. Whether binding was seen depends on the method and setting. In cells and extracts the contact can be indirect. A result given as binding can be weak or reduced; the word gives no strength. For some assays here: Tags and fused reporters may be left off the sequences shown.
T1: Thermus thermophilus HB8 MutS2 (endogenous) (Thermus thermophilus HB8 (endogenous in T. thermophilus HB8 cells)) (UniProt Q5SHT5)
T1 sequence: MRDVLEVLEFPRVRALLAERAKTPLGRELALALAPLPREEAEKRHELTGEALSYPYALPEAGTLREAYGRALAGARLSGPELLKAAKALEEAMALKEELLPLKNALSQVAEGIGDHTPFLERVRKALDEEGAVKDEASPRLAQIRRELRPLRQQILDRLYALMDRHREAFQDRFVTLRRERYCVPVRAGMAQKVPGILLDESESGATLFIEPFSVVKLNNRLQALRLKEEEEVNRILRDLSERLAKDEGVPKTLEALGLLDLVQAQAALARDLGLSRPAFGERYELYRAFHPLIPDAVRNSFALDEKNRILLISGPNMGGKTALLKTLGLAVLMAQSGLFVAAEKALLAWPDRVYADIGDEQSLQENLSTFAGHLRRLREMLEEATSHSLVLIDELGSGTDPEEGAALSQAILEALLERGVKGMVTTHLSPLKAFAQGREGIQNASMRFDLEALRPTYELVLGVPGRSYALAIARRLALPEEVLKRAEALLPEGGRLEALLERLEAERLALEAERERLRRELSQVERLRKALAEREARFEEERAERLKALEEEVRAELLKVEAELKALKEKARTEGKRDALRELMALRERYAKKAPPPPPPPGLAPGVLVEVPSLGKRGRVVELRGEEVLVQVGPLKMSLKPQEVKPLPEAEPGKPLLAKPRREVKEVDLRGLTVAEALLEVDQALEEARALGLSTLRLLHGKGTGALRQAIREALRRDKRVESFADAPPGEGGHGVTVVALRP

The chains behind the UniProt entries cited, without tags or fusion partners. Where a name states a change or a piece, a line headed by the entry shows the natural chain unless it says otherwise.
UniProt Q56239: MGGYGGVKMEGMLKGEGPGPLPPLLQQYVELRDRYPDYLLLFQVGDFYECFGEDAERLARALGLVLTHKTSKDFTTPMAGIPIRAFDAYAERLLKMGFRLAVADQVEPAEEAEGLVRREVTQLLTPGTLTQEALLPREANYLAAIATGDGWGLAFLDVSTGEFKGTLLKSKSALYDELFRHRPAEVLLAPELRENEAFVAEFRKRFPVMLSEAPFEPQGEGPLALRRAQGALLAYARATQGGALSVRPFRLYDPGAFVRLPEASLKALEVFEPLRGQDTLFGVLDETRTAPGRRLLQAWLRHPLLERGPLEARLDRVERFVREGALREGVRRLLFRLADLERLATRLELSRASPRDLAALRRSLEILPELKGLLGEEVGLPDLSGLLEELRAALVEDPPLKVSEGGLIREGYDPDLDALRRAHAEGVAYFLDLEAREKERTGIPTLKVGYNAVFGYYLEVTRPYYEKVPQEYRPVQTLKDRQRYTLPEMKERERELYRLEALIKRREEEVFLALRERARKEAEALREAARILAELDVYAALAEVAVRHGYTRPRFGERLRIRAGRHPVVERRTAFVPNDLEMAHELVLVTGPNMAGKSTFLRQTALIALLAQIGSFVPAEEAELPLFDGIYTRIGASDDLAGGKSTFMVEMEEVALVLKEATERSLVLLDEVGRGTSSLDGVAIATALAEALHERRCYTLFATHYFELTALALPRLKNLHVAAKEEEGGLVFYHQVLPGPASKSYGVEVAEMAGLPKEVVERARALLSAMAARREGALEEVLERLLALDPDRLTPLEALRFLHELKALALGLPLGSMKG
UniProt Q9RA54: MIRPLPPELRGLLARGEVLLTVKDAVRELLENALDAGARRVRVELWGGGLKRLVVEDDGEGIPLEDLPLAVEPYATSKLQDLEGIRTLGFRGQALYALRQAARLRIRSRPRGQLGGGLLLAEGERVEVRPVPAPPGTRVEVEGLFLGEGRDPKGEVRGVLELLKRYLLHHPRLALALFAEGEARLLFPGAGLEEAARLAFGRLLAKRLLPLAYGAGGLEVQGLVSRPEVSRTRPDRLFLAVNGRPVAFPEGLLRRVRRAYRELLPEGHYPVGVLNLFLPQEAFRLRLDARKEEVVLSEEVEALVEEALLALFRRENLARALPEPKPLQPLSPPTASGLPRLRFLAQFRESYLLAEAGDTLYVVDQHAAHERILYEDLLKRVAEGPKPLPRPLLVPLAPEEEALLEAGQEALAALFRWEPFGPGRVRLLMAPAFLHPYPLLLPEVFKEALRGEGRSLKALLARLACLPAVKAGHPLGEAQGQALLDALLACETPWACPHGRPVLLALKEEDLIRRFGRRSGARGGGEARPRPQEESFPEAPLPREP

T2: recombinant His6-tagged MutS2 (Thermus thermophilus HB8) (T. thermophilus) (UniProt Q5SHT5)
T2 sequence: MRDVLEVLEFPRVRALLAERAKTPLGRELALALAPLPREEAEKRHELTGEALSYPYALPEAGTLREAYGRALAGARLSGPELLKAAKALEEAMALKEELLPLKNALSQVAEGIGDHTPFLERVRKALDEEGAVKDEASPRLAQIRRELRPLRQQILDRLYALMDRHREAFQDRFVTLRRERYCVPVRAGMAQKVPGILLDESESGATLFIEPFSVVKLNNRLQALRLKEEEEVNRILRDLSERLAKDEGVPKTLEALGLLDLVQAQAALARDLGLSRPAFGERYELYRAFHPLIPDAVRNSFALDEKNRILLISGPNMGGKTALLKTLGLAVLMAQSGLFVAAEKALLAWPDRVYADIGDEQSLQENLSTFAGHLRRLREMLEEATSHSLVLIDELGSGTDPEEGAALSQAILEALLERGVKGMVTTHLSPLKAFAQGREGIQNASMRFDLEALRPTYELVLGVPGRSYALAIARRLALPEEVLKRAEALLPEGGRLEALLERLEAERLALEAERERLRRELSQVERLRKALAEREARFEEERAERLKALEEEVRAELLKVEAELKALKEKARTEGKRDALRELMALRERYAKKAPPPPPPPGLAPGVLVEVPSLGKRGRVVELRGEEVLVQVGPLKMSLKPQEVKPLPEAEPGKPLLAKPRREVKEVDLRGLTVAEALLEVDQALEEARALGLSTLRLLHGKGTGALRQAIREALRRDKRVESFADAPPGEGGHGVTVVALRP


Assays:
[1] = target: T1, Thermus thermophilus HB8 MutS2 (endogenous) (Thermus thermophilus HB8 (endogenous in T. thermophilus HB8 cells)); experiment: co-IP; endogenous proteins of T. thermophilus HB8 lysate (50 mM Tris-HCl pH 7.5, 30 mM NaCl) treated with DNase I 0.5 mg/ml, 37°C 30 min; polyclonal rabbit antibody on Dynabeads-Protein A; Western blot
[2] = target: T2, recombinant His6-tagged MutS2 (Thermus thermophilus HB8) (T. thermophilus); experiment: pull-down; His6-tagged MutS2 held on Talon resin; T. thermophilus HB8 lysate loaded; with 5 mM ATP or ADP and 5 mM MgCl2, 30 min at room temperature; washed with buffer II with 10 mM imidazole, eluted with 100 mM imidazole; Western blot; only the target purified
[3] = target: T2, recombinant His6-tagged MutS2 (Thermus thermophilus HB8) (T. thermophilus); experiment: pull-down; His6-tagged MutS2 held on Talon resin; T. thermophilus HB8 lysate loaded; without adenine nucleotide, 30 min at room temperature; washed with buffer II with 10 mM imidazole, eluted with 100 mM imidazole; Western blot; only the target purified
[4] = target: Thermus thermophilus HB8 MutS (endogenous) (Thermus thermophilus HB8 (endogenous in T. thermophilus HB8 cells)) (UniProt Q56239); experiment: co-IP; endogenous proteins of T. thermophilus HB8 lysate (50 mM Tris-HCl pH 7.5, 30 mM NaCl) treated with DNase I 0.5 mg/ml, 37°C 30 min; polyclonal rabbit antibody on Dynabeads-Protein A; Western blot
[5] = target: Thermus thermophilus HB8 MutL (endogenous) (Thermus thermophilus HB8 (endogenous in T. thermophilus HB8 cells)) (UniProt Q9RA54); experiment: as above

binding [1]	binding [2]	binding [4]	binding [5]	Molecule	binding [3]
binds	binds			Thermus thermophilus HB8 MutL (endogenous) (from UniProt Q9RA54)	binds
binds	binds			Thermus thermophilus HB8 MutS (endogenous) (from UniProt Q56239)	no binding (only without an adenine nucleotide)
		binds	binds	Thermus thermophilus HB8 MutS2 (endogenous) (protein, UniProt Q5SHT5 1-744) MRDVLEVLEFPRVRALLAERAKTPLGRELALALAPLPREEAEKRHELTGEALSYPYALPEAGTLREAYGRALAGARLSGPELLKAAKALEEAMALKEELLPLKNALSQVAEGIGDHTPFLERVRKALDEEGAVKDEASPRLAQIRRELRPLRQQILDRLYALMDRHREAFQDRFVTLRRERYCVPVRAGMAQKVPGILLDESESGATLFIEPFSVVKLNNRLQALRLKEEEEVNRILRDLSERLAKDEGVPKTLEALGLLDLVQAQAALARDLGLSRPAFGERYELYRAFHPLIPDAVRNSFALDEKNRILLISGPNMGGKTALLKTLGLAVLMAQSGLFVAAEKALLAWPDRVYADIGDEQSLQENLSTFAGHLRRLREMLEEATSHSLVLIDELGSGTDPEEGAALSQAILEALLERGVKGMVTTHLSPLKAFAQGREGIQNASMRFDLEALRPTYELVLGVPGRSYALAIARRLALPEEVLKRAEALLPEGGRLEALLERLEAERLALEAERERLRRELSQVERLRKALAEREARFEEERAERLKALEEEVRAELLKVEAELKALKEKARTEGKRDALRELMALRERYAKKAPPPPPPPGLAPGVLVEVPSLGKRGRVVELRGEEVLVQVGPLKMSLKPQEVKPLPEAEPGKPLLAKPRREVKEVDLRGLTVAEALLEVDQALEEARALGLSTLRLLHGKGTGALRQAIREALRRDKRVESFADAPPGEGGHGVTVVALRP	
